Assay results: PubChem BioAssay AID212 (DTP/NCI, 2004)
The list does not hold the whole screen: it gathers tests that were run many times, whatever their T/C, doses with no T/C, and many T/C values between a quarter and a half above the control. Further doses and runs are listed elsewhere. T/C: endpoint of the treated group in % of that of the vehicle group. Schedules are NCI's codes, read here as Q, the interval in days (D) or hours (H), X, the number of doses. Some T/C values are followed by the survivors on the day toxicity was checked, most often the fifth; where none is given, no animal had died by that day. Some entries give survivors of the animals treated and no T/C: the source files T/C as zero there, which appears to mark a toxic dose or a test without result, not a measured value. Survivors were counted at the toxicity check, usually on the fifth day, unless a day is given; later deaths do not show. Some doses were run more than once; their values stand side by side, smallest first.

Test system: BDF1 mice, colon carcinoma 38 sc, T/C %
Assay: NCI In Vivo Anticancer Drug Screen. Data for tumor model Colon Carcinoma 38 (subcutaneous) in B6D2F1 (BDF1) mice
Settings: T/C endpoint: median tumor weight (est.), higher T/C = larger tumour; for T/C: evaluated on day 20
Procedure: The antitumor activity of compounds was measured in mice bearing transplantable tumors. Survival or tumor size were measured and the results are expressed as the measurement made in the treated group (T) divided by the measurement made in the vehicle treated control group (C). The tumor model used in this assay is Colon Carcinoma 38 (subcutaneous) in B6D2F1 (BDF1) mice

[1] = dose: 200.0 mg/kg/injection, schedule: Q07DX002 (ip), vehicle: Klucel (hydroxypropylcellulose) (HPC)
[2] = dose: 200.0 mg/kg/injection, schedule: Q07DX002 (ip), vehicle: saline with Tween-80
[3] = dose: 50.0 mg/kg/injection, schedule: Q07DX002 (ip), vehicle: saline
[4] = dose: 400.0 mg/kg/injection, schedule: Q07DX002 (ip), vehicle: saline
[5] = dose: 50.0 mg/kg/injection, schedule: Q07DX002 (ip), vehicle: Klucel (hydroxypropylcellulose) (HPC)
[6] = dose: 12.5 mg/kg/injection, schedule: Q07DX002 (ip), vehicle: suspension in saline
[7] = dose: 25.0 mg/kg/injection, schedule: Q07DX002 (ip), vehicle: saline
[8] = dose: 25.0 mg/kg/injection, schedule: Q07DX002 (ip), vehicle: suspension in saline
[9] = dose: 400.0 mg/kg/injection, schedule: Q07DX002 (ip), vehicle: saline with Tween-80
[10] = dose: 200.0 mg/kg/injection, schedule: Q07DX002 (ip), vehicle: saline
[11] = dose: 800.0 mg/kg/injection, schedule: Q07DX002 (ip), vehicle: Klucel (hydroxypropylcellulose) (HPC)
[12] = dose: 100.0 mg/kg/injection, schedule: Q07DX002 (ip), vehicle: saline with Tween-80

For Cc1c2ccncc2c(C)c2c1[nH]c1ccccc12, which T/C (dose: 10.0 mg/kg/injection, schedule: Q07DX002 (ip), vehicle: distilled water + Tween-80) is on record?
Its T/C is 130 % of control.

And the T/C (dose: 10.0 mg/kg/injection, schedule: Q07DX002 (ip), vehicle: water)?
Its T/C is 134 % of control.

And the survivor count (dose: 160.0 mg/kg/injection, schedule: Q07DX002 (ip), vehicle: distilled water + Tween-80)?
The survivor count was 6 of 10 on day 20.

What about the survivor count (dose: 160.0 mg/kg/injection, schedule: Q07DX002 (ip), vehicle: water) of the same molecule?
The survivor count was 3 of 10 on day 20.

And the survivor count [1]?
The survivor count was 3 of 10.

What about the survivor count (dose: 200.0 mg/kg/injection, schedule: Q07DX003 (ip), vehicle: Klucel (hydroxypropylcellulose) (HPC)) of the same molecule?
Its survivor count is 6 of 10.

And the survivor count (dose: 240.0 mg/kg/injection, schedule: Q07DX002 (ip), vehicle: water)?
The survivor count was 0 of 10 on day 20.

Which survivor count [2] does the source give for Nc1nnc[se]1 here?
The survivor count was 0 of 10 on day 20.

With O=c1n[n+]([O-])ccn1C1OC(CO)C(O)C1O (centres undefined) as the molecule, how does the T/C [3] read?
Its T/C is 128 % of control.

What about the T/C (dose: 300.0 mg/kg/injection, schedule: Q07DX002 (ip), vehicle: saline) of the same molecule?
Its T/C is 131 % of control [9 of 10 alive].

What about the T/C [4] of the same molecule?
The T/C was 140 % of control.

With CC[C@H]1CN2CCc3cc(OC)c(OC)cc3[C@@H]2C[C@@H]1C[C@H]1NCCc2cc(O)c(OC)cc21 as the molecule, how does the survivor count (dose: 48.0 mg/kg/injection, schedule: Q07DX002 (ip), vehicle: suspension in saline) read?
Its survivor count is 6 of 10 on day 20.

What does the source list for CN(C)CCN(C)CC(C)(C)C(=O)/C=C/c1ccccc1?
survivor count (dose: 250.0 mg/kg/injection, schedule: Q07DX002 (ip), vehicle: saline): 2 of 10 on day 20; survivor count (dose: 500.0 mg/kg/injection, schedule: Q07DX002 (ip), vehicle: saline): 0 of 10 on day 20

With Cc1cn(C2CC(F)C(CO)O2)c(=O)[nH]c1=O (centres undefined) as the molecule, how does the T/C (dose: 25.0 mg/kg/injection, schedule: Q01DX001 (ip), vehicle: Klucel (hydroxypropylcellulose) (HPC)) read?
Its T/C is 129 % of control.

Which T/C [5] does the source give for Nc1ccccc1N here?
Its T/C is 133 % of control.

Which results are given for ClCC[Se](Cl)(Cl)c1ccccc1?
T/C (dose: 3.12 mg/kg/injection, schedule: Q07DX002 (ip), vehicle: suspension in saline): 149 % of control; survivor count [6]: 6 of 10 on day 20; survivor count [7]: 0 of 10 on day 20; survivor count [8]: 0 of 10 on day 20; survivor count [3]: 0 of 10 on day 20; survivor count (dose: 50.0 mg/kg/injection, schedule: Q07DX002 (ip), vehicle: suspension in saline): 0 of 10 on day 20

For C[C@@]1(CO)[C@H](O)CC[C@@]2(C)[C@H]1CC[C@H]1C[C@@H]3C[C@@]12CC[C@@]3(O)COC(=O)CN, which T/C (dose: 50.0 micrograms/kg/injection, schedule: Q07DX002 (ip), vehicle: saline + alcohol) is on record?
The T/C was 143 % of control.

What about the T/C (dose: 200.0 micrograms/kg/injection, schedule: Q07DX002 (ip), vehicle: saline + alcohol) of the same molecule?
Its T/C is 129 % of control.

What about the T/C (dose: 400.0 micrograms/kg/injection, schedule: Q07DX002 (ip), vehicle: saline + alcohol) of the same molecule?
Its T/C is 132 % of control.

With CC1(c2ccc(Cl)cc2)OC(=O)C(=Cc2ccc([N+](=O)[O-])s2)C(=O)O1 (centres undefined) as the molecule, how does the survivor count [9] read?
The survivor count was 2 of 10 on day 20.

For COC(=O)Nc1nc2ccc(C3(c4ccc(F)cc4)OCCO3)cc2[nH]1, which survivor count [4] is on record?
Its survivor count is 3 of 8 on day 20 and 6 of 10 on day 20.

Which survivor count (dose: 100.0 mg/kg/injection, schedule: Q07DX002 (ip), vehicle: saline) does the source give for CCc1ncnc2cc(OCC3CO3)c(OC)cc12 (centres undefined) here?
The survivor count was 0 of 10 on day 20.

What about the survivor count [10] of the same molecule?
The survivor count was 0 of 10 on day 20.

And the survivor count [4]?
The survivor count was 0 of 10 on day 20.

How did the T/C (dose: 6.25 mg/kg/injection, schedule: Q07DX002 (ip), vehicle: saline + alcohol) turn out when COC1CC(C)C(OC)c2cc(O)cc(c2O)NC(=O)/C(C)=C/C=C\C(C)C(OC(N)=O)/C(C)=C\C(C)C1OC (centres undefined) was run?
The T/C was 145 % of control.

What about the survivor count (dose: 50.0 mg/kg/injection, schedule: Q07DX002 (ip), vehicle: saline + alcohol) of the same molecule?
The survivor count was 5 of 10 on day 20.

Which results are given for Ic1ncnc2c1ncn2C1CCCO1 (centres undefined)?
T/C [1]: 132 % of control; survivor count (dose: 400.0 mg/kg/injection, schedule: Q07DX002 (ip), vehicle: Klucel (hydroxypropylcellulose) (HPC)): 5 of 10 on day 20

Which results are given for [I][Hg][CH2]C1COC([CH2][Hg][I])CO1 (centres undefined)?
T/C [6]: 135 % of control; T/C [8]: 148 % of control; T/C (dose: 100.0 mg/kg/injection, schedule: Q07DX002 (ip), vehicle: suspension in saline): 148 % of control [9 of 10 alive on day 20]; survivor count (dose: 200.0 mg/kg/injection, schedule: Q07DX002 (ip), vehicle: suspension in saline): 5 of 10 on day 20

Which T/C (dose: 25.0 mg/kg/injection, schedule: Q07DX003 (ip), vehicle: saline) does the source give for CNNCc1ccc(C(=O)NC(C)C)cc1 here?
The T/C was 148 % of control.

What does the source list for Cc1cc(C)c(-c2cc(O)c(C)cc2O)c(C)c1?
T/C [5]: 139 % of control; survivor count [11]: 6 of 10 on day 20

CC(/C=C/c1ccccc1)=Nc1ccccc1 was tested. Which T/C [2] did it give?
Its T/C is 146 % of control.

And the survivor count (dose: 800.0 mg/kg/injection, schedule: Q07DX002 (ip), vehicle: saline with Tween-80)?
The survivor count was 4 of 10 on day 20.

With CC[C@@]1(O)C(=O)OCc2c1cc1n(c2=O)Cc2cc3cc(O)ccc3nc2-1 as the molecule, how does the survivor count (dose: 24.0 mg/kg/injection, schedule: Q07DX002 (ip), vehicle: saline) read?
The survivor count was 2 of 10 on day 20.

For COC(=O)c1ccoc1, which T/C [7] is on record?
The T/C was 125 % of control.

And the survivor count [3]?
Its survivor count is 2 of 10 on day 20.

What about the survivor count (dose: 800.0 mg/kg/injection, schedule: Q07DX002 (ip), vehicle: saline) of the same molecule?
Its survivor count is 0 of 10 on day 20.

How did the survivor count [9] turn out when O=S(=O)(N=N/C=C1\C=CC=CN1O)c1cccs1 was run?
The survivor count was 3 of 10 on day 20.

With CC(=O)Oc1[nH]c(=O)c2cccc3c2c1CCC3 as the molecule, how does the T/C [12] read?
Its T/C is 137 % of control.

And the survivor count (dose: 3200.0 mg/kg/injection, schedule: Q07DX002 (ip), vehicle: saline with Tween-80)?
The survivor count was 6 of 10 on day 20.

With Cc1ccc(S(=O)(=O)NC(=O)C2C(=O)CC3(CCCCC3)CC2=O)cc1 as the molecule, how does the survivor count [11] read?
The survivor count was 5 of 10 on day 20.

For O=S(=O)(CCl)OCCCl, which survivor count [2] is on record?
The survivor count was 0 of 10 on day 20.

What about the survivor count [9] of the same molecule?
Its survivor count is 0 of 10 on day 20.

CC[N](CC)[Ge]([CH2]C)[CH2]C.CC[N](CC)[Ge]([CH2]C)[CH2]C was tested. Which survivor count [10] did it give?
Its survivor count is 0 of 10 on day 20.

Which survivor count (dose: 50.0 mg/kg/injection, schedule: Q07DX002 (ip), vehicle: saline with Tween-80) does the source give for O=[n+]1c2ccccc2n([O-])c2ccccc21.[Cl][Ni][Cl] here?
Its survivor count is 5 of 10 on day 20.

What about the survivor count [12] of the same molecule?
The survivor count was 0 of 10 on day 20.

How did the survivor count (dose: 100.0 mg/kg/injection, schedule: Q07DX002 (ip), vehicle: distilled water + Tween-80) turn out when CNC(=O)OCc1c(COC(=O)NC)c(-c2ccccc2)n(C)c1-c1ccccc1 was run?
The survivor count was 2 of 10 on day 20.

What about the survivor count (dose: 200.0 mg/kg/injection, schedule: Q07DX002 (ip), vehicle: distilled water + Tween-80) of the same molecule?
The survivor count was 0 of 10 on day 20.

With CC(=S)NC(O)C(=O)c1ccccc1 (centres undefined) as the molecule, how does the survivor count [9] read?
Its survivor count is 1 of 10 on day 20.
